Holding throughout (conditions): yeast three-hybrid, YBZ-1, SC-Leu-His + 0.5 mM 3-AT, 4 days
Assay [1] addresses T1, PUM1 PUF domain R3-ARG C935A + Q939G (Homo sapiens) (UniProt Q14671).
T1 sequence: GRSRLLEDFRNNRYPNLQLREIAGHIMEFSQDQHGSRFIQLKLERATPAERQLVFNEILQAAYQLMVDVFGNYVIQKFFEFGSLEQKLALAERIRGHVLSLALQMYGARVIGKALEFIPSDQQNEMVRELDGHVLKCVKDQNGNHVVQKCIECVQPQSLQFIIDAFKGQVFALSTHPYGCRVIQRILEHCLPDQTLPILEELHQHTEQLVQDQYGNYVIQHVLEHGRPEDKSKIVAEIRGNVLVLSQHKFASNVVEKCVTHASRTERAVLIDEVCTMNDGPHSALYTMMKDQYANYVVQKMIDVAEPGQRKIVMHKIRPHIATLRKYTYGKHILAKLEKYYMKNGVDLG

The target of assay [2] is T2, PUM1 PUF domain R3-ART C935A + Q939T (Homo sapiens) (UniProt Q14671).
T2 sequence: T1 sequence with G112T

The target in assay [3] is T3, PUM1 PUF domain R3-DAK C935D + R936A + Q939K (Homo sapiens) (UniProt Q14671).
T3 sequence: T1 sequence with A108D, R109A, G112K

Assay [4] has as its target T4, PUM1 PUF domain R3-EFL C935E + R936F + Q939L (Homo sapiens) (UniProt Q14671).
T4 sequence: T1 sequence with A108E, R109F, G112L

For assay [5], the target named is T5, PUM1 PUF domain R3-EWL C935E + R936W + Q939L (Homo sapiens) (UniProt Q14671).
T5 sequence: T1 sequence with A108E, R109W, G112L

Assay [6] deals with T6, PUM1 PUF domain R3-GFL C935G + R936F + Q939L (Homo sapiens) (UniProt Q14671).
T6 sequence: T1 sequence with A108G, R109F, G112L

For assay [7], the target named is T7, PUM1 PUF domain R3-GPC C935G + R936P + Q939C (Homo sapiens) (UniProt Q14671).
T7 sequence: T1 sequence with A108G, R109P, G112C

The target of assay [8] is T8, PUM1 PUF domain R3-PFL C935P + R936F + Q939L (Homo sapiens) (UniProt Q14671).
T8 sequence: T1 sequence with A108P, R109F, G112L

The target in assay [9] is T9, PUM1 PUF domain R3-RAA C935R + R936A + Q939A (Homo sapiens) (UniProt Q14671).
T9 sequence: T1 sequence with A108R, R109A, G112A

For assay [10], the target named is T10, PUM1 PUF domain R3-RAG C935R + R936A + Q939G (Homo sapiens) (UniProt Q14671).
T10 sequence: T1 sequence with A108R, R109A

For assay [11], the target named is T11, PUM1 PUF domain R3-RPA C935R + R936P + Q939A (Homo sapiens) (UniProt Q14671).
T11 sequence: T1 sequence with A108R, R109P, G112A

The target of assay [12] is T12, PUM1 PUF domain R3-RPK C935R + R936P + Q939K (Homo sapiens) (UniProt Q14671).
T12 sequence: T1 sequence with A108R, R109P, G112K

Assay [13] addresses T13, PUM1 PUF domain R3-RQG C935R + R936Q + Q939G (Homo sapiens) (UniProt Q14671).
T13 sequence: T1 sequence with A108R, R109Q

Assay [14] addresses T14, PUM1 PUF domain R3-RRM C935R + Q939M (Homo sapiens) (UniProt Q14671).
T14 sequence: T1 sequence with A108R, G112M

Assay [15] deals with T15, PUM1 PUF domain R3-RSF C935R + R936S + Q939F (Homo sapiens) (UniProt Q14671).
T15 sequence: T1 sequence with A108R, R109S, G112F

Assay [16] concerns the target T16, PUM1 PUF domain R3-RTI C935R + R936T + Q939I (Homo sapiens) (UniProt Q14671).
T16 sequence: T1 sequence with A108R, R109T, G112I

Assay [17] deals with T17, PUM1 PUF domain R3-RTM C935R + R936T + Q939M (Homo sapiens) (UniProt Q14671).
T17 sequence: T1 sequence with A108R, R109T, G112M

Assay [18] deals with T18, PUM1 PUF domain R3-RTW C935R + R936T + Q939W (Homo sapiens) (UniProt Q14671).
T18 sequence: T1 sequence with A108R, R109T, G112W

The target of assay [19] is T19, PUM1 PUF domain R3-RVS C935R + R936V + Q939S (Homo sapiens) (UniProt Q14671).
T19 sequence: T1 sequence with A108R, R109V, G112S

For assay [20], the target named is T20, PUM1 PUF domain R3-VYW C935V + R936Y + Q939W (Homo sapiens) (UniProt Q14671).
T20 sequence: T1 sequence with A108V, R109Y, G112W

Numbering of substitutions follows the chain as printed. The list shows a part of the results.

“GGCUAGAACUAGUGGAUCCCCCGGCGCCCGGCGGCUCGAGCCCGGGUAAGUGUAAGUAGUCUGCAUGCCGCCGGGCGCCAUGCCUGCAGGUCGACUCUAGAAAACAUG”: the binding signal (log2 enrichment (interaction score)) in assay [1] was -0.34; in assay [2], 0.03; in assay [3] it was -0.3; in assay [4], 0.03; in assay [5] it was 0.18; in assay [6], 0.21. Moreover, the binding signal (log2 enrichment (interaction score)) is -0.31 in [7]; -0.36 in [8]; 0.2 in assay [9]; 0.36 in assay [10]; 0.21 in [11]; 0.03 in [12]. The binding signal (log2 enrichment (interaction score)) in assay [13] is -0.2; in [14], 0.28; in [15], 0.11; in assay [16] it was 0.5; in assay [17] it was 0.29; in assay [18], -0.12. Moreover, the binding signal (log2 enrichment (interaction score)) in assay [19] was -0.14; in assay [20] it was -0.41.

These data come from PMC8384837.
